Measurements as given in patent US20160030345A1, “Core Compositions” (Johnson & Johnson Consumer Inc., priority 2014, published 2016).
The amount applied is not stated for every result.

Assay: Taste-testing by four subjects (bitterness, saltiness, mouth/throat burn)
Format: in vivo
Details: average of four subjects; scale 0-10

CC(C)Cc1ccc(C(C)C(=O)O)cc1.[Na] (stereo not drawn) [Pure API, sodium ibuprofen]
Bitterness, Average: 3.75
Mouth/Throat Burn, Average: 8
Saltiness, Average: 4
